From article PMC5438708 come the findings set out here.

Test [1] deals with T1, α2,3-sialyltransferase type I (ST3GalI), human (human (endogenous in ES2)) (UniProt Q11201).
T1 sequence: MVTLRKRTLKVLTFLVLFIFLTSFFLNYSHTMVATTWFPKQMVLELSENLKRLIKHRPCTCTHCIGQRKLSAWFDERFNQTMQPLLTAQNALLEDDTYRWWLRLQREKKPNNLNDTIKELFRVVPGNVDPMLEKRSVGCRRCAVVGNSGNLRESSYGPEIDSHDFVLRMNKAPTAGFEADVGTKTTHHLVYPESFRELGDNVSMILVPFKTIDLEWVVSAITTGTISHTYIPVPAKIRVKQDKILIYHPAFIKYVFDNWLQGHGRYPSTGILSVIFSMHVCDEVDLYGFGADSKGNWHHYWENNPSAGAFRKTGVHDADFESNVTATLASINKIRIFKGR
Put plainly: co-IP; endogenous proteins from ES2 cell lysates (scramble and ST3GalI shRNA cells); Pierce Crosslink IP kit, antibody (Erbitux for EGFR) cross-linked to protein A/G agarose; lysis buffer 0.025 M Tris, 0.15 M NaCl, 1 mM EDTA, 1% NP40, 5% glycerol; overnight at 4°C; western blot.

For test [2], the target named is Epidermal growth factor receptor (EGFR), human (human (endogenous in ES2)) (UniProt P00533). The test is described as above.

No constants are given. Whether binding was seen depends on the method and setting. In cells and extracts the contact can be indirect. Some binding calls cover weakened binding; strength is not graded here.

For the molecule “Epidermal growth factor receptor (EGFR), human (from UniProt P00533 25-1210)”, the binding result in test [1] is “binds”.

B1: α2,3-sialyltransferase type I (ST3GalI), human (enzyme, UniProt Q11201 1-340)
chain: MVTLRKRTLKVLTFLVLFIFLTSFFLNYSHTMVATTWFPKQMVLELSENLKRLIKHRPCTCTHCIGQRKLSAWFDERFNQTMQPLLTAQNALLEDDTYRWWLRLQREKKPNNLNDTIKELFRVVPGNVDPMLEKRSVGCRRCAVVGNSGNLRESSYGPEIDSHDFVLRMNKAPTAGFEADVGTKTTHHLVYPESFRELGDNVSMILVPFKTIDLEWVVSAITTGTISHTYIPVPAKIRVKQDKILIYHPAFIKYVFDNWLQGHGRYPSTGILSVIFSMHVCDEVDLYGFGADSKGNWHHYWENNPSAGAFRKTGVHDADFESNVTATLASINKIRIFKGR
For the molecule B1, the binding result in test [2] is reported as “binds”.
